Measurements reported in the supplement of paper PMC12067093, “Discovery and optimisation of a covalent ligand for TRIM25 and its application to targeted protein ubiquitination” (Chemical Science, 2025).
The list shows a part of the results.

Protein sequences, listed by entry. Tags and fused reporters are not part of them. Lines headed by an entry give the natural chain unless they say otherwise; changes in a name come on top.
UniProt P07996: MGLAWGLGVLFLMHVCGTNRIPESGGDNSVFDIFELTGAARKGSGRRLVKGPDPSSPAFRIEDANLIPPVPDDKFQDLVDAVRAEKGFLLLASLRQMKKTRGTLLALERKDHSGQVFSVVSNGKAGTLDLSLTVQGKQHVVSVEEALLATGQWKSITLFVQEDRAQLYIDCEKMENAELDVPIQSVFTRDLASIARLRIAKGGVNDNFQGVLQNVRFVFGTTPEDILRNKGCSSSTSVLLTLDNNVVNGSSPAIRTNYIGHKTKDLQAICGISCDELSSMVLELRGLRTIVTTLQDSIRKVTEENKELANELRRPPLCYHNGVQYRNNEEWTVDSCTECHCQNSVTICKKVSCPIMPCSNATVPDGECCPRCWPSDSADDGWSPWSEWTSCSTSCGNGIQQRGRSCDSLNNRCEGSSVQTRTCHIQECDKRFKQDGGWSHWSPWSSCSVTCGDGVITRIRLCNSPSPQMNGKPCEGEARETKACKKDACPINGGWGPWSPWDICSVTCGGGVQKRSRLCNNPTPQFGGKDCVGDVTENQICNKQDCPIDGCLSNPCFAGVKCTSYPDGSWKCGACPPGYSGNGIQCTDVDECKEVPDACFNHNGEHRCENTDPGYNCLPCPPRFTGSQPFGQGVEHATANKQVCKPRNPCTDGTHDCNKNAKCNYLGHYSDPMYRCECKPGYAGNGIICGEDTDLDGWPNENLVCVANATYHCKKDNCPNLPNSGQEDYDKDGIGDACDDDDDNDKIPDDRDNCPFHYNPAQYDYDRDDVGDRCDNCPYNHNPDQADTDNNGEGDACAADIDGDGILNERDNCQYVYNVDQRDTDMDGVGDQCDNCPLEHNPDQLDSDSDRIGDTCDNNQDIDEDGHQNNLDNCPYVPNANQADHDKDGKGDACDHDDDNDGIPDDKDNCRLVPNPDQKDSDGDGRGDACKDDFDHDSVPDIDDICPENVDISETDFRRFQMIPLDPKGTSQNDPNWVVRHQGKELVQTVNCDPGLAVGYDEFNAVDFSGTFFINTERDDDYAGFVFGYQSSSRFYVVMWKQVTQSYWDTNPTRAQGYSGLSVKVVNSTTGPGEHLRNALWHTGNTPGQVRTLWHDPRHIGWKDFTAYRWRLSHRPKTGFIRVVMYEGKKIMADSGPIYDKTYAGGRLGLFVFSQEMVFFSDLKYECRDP
UniProt Q8NHU6: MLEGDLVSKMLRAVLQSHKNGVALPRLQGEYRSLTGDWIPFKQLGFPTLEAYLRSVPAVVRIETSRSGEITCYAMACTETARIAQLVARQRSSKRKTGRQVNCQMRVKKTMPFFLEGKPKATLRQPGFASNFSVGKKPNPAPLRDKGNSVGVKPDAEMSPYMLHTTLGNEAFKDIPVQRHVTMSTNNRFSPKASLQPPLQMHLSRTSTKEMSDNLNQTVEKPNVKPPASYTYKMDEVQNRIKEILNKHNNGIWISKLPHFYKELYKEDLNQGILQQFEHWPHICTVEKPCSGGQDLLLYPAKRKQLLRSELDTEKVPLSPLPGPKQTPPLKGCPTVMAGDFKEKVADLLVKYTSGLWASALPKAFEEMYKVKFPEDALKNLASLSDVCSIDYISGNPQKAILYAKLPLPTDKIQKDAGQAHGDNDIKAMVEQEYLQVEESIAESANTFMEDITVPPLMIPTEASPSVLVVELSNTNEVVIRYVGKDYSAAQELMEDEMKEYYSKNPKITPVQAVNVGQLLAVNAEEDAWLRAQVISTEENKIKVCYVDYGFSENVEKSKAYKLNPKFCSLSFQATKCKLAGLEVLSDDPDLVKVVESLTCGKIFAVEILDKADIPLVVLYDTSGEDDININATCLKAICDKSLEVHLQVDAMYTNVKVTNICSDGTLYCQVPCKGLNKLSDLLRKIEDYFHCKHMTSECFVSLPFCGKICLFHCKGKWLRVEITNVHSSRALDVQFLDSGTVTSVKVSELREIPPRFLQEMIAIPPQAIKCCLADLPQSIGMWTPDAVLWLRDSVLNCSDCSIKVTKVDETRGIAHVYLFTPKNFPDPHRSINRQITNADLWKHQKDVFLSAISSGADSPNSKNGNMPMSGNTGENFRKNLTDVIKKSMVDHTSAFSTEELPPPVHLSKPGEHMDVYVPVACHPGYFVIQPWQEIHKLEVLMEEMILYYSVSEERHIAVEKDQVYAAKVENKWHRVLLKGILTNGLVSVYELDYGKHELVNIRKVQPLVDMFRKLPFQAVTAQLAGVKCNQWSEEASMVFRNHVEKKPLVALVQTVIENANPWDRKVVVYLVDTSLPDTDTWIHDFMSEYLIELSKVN
UniProt P52888, whole entry, looked up: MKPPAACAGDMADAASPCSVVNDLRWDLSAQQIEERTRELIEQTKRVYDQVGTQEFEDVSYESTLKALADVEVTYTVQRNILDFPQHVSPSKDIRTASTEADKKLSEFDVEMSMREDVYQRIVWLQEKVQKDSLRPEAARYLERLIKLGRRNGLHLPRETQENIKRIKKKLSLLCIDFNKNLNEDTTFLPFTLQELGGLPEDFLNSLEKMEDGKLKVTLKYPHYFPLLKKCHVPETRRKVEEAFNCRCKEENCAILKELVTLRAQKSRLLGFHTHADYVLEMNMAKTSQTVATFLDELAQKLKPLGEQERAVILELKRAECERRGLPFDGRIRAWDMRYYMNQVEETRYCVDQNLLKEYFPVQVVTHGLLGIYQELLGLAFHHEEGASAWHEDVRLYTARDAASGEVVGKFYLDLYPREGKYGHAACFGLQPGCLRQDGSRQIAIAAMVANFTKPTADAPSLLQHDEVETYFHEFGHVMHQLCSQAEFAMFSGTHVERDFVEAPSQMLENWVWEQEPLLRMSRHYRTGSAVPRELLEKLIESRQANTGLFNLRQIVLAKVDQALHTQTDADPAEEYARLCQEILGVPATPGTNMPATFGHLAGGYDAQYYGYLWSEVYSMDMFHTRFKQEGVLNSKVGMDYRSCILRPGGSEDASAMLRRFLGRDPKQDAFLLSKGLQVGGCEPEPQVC
UniProt Q86W42: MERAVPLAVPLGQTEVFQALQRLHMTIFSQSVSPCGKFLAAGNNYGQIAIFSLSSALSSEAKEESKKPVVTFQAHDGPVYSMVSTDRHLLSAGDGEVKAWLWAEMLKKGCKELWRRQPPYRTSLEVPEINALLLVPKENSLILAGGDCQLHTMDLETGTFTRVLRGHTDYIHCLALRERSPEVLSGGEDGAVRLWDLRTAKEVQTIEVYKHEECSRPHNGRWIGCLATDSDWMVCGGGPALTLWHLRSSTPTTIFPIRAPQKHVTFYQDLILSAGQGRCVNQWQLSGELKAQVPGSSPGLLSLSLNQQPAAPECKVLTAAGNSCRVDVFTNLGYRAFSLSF
UniProt Q9BV44: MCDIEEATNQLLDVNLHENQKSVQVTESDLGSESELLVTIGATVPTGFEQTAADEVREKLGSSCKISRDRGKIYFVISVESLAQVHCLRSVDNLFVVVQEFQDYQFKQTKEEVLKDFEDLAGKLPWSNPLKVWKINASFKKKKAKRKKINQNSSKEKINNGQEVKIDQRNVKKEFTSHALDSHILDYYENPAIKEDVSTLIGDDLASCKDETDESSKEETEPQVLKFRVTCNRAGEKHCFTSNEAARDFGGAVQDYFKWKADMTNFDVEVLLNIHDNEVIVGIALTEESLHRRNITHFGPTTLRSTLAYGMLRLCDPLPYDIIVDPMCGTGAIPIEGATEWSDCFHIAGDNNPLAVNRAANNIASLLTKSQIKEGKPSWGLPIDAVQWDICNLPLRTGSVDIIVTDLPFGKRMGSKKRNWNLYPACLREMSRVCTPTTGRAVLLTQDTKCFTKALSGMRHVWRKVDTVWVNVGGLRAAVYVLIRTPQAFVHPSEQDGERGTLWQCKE
UniProt Q96N21: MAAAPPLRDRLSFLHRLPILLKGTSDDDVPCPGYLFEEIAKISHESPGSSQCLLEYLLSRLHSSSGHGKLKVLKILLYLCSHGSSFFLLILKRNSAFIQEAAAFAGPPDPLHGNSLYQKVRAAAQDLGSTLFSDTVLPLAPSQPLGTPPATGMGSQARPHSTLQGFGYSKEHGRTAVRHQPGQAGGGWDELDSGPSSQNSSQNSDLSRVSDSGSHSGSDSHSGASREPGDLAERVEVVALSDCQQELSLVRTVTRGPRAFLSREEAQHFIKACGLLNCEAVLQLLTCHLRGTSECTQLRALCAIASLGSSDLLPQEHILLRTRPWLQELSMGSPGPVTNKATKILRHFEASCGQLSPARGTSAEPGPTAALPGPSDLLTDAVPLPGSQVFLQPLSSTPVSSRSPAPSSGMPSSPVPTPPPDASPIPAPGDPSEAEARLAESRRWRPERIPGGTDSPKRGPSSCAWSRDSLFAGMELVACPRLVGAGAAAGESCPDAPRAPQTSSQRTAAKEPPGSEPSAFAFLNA
UniProt Q9UNS1: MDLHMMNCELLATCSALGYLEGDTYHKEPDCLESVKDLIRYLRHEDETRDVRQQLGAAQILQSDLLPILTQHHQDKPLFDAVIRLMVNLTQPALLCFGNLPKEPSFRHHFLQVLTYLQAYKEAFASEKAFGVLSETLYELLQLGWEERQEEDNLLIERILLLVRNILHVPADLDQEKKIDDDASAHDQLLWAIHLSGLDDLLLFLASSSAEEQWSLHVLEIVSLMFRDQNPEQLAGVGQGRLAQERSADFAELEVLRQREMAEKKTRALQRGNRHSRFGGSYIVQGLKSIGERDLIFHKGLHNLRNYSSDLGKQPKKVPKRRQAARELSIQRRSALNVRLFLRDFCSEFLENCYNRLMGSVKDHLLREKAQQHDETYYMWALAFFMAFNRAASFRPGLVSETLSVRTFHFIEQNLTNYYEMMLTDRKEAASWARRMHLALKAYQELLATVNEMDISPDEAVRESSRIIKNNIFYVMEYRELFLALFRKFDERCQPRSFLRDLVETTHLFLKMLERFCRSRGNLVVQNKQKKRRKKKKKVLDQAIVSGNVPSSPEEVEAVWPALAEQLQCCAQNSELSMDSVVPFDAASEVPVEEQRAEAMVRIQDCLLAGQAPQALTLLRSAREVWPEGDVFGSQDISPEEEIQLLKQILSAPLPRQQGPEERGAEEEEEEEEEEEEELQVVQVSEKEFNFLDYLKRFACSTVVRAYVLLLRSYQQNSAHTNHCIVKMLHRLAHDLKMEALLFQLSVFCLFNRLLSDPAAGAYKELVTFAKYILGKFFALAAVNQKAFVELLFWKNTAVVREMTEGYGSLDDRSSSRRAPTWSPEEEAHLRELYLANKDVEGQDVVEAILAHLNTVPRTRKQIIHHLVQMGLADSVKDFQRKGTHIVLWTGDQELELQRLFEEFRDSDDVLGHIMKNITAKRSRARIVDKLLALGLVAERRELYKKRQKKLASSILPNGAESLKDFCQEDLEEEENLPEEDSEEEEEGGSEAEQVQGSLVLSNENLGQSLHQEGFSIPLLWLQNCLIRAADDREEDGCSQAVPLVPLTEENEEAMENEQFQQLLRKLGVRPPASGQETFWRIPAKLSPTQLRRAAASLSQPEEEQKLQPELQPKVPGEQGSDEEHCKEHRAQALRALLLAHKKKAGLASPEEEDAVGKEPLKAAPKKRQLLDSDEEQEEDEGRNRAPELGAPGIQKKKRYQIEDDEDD
UniProt P29401: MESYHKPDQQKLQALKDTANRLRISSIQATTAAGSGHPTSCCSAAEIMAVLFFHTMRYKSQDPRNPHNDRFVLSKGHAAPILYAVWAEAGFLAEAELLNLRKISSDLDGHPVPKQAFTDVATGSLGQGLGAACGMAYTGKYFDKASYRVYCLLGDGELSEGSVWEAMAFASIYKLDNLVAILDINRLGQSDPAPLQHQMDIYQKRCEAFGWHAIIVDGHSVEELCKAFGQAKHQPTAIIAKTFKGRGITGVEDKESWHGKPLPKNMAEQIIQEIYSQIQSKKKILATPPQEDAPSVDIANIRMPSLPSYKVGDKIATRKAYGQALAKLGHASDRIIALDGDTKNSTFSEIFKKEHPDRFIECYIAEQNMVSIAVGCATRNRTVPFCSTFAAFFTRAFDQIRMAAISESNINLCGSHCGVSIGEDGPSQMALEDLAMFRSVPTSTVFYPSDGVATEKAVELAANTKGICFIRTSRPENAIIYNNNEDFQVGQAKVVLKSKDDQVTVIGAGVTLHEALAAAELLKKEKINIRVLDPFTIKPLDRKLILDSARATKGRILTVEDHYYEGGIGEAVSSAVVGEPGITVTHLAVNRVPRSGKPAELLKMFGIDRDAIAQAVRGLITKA
UniProt P54274: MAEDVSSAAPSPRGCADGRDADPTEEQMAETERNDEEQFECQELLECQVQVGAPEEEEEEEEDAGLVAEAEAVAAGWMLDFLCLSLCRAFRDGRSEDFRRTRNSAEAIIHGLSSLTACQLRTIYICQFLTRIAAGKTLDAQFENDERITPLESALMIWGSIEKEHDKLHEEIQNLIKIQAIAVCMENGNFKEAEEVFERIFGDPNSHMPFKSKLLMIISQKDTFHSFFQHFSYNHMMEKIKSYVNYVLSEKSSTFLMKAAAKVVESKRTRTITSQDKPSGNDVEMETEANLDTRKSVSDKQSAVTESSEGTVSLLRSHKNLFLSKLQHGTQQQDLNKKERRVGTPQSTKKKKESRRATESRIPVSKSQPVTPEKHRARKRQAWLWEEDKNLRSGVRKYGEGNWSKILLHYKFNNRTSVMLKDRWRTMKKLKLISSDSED

What follows are targets tested with Cc1cc(ccc1-c1ccccc1)C(=O)N1CCCN(CC1)C(=O)CCl [compound 10] (assay: probe-labelled cysteine peptide fold change vs DMSO (competition) (log2 fold change); higher = less target engagement (more negative = stronger competition)). Settings: 10 µM; THP-1; incubation time: 4 h.
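Note: competitive profiling in live THP-1 cells: cysteine peptides tagged with an iodoacetamide desthiobiotin (IA-DTB) probe, intensity after compound treatment relative to DMSO-treated cells.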

| Target | probe-labelled cysteine peptide fold change |
| --- | --- |
| THOC5_Q13769_613_ELCGPWPSHQLLTNQLQR (UniProt Q13769) | 0.0519 |
| THBD_P07204_175_ADGFLCEFHFPATCRPLAVEPGAAAAAVSITYGTPFAAR (UniProt P07204) | -0.212 |
| TEX264_Q9Y6I9_94_CAVGSILSEGEESPSPELIDLYQK (UniProt Q9Y6I9) | -0.0286 |
| THEMIS2_Q5TEJ8_355_DCEGEREENPEFTSLAVGDR (UniProt Q5TEJ8) | -0.0936 |
| TFCP2_Q12800_395_LTIYVCQESLQLR (UniProt Q12800) | 0.279 |
| THUMPD1_Q9NXG2_248_AVCCLSVVK (UniProt Q9NXG2) | -0.065 |
| THBS1_P07996_718_KDNCPNLPNSGQEDYDK (UniProt P07996) | -0.541 |
| TDRD7_Q8NHU6_333_GCPTVMAGDFK (UniProt Q8NHU6) | -0.179 |
| THOP1_P52888_434_YGHAACFGLQPGCLR (UniProt P52888) | 0.0705 |
| THBS1_P07996_318_RPPLCYHNGVQYR (UniProt P07996) | -0.232 |
| THOC3_Q96J01_106_GHGDSVDQLCWHPSNPDLFVTASGDK (UniProt Q96J01) | 0.0637 |
| TCP1_P17987_147_YINENLIVNTDELGRDCLINAAK (UniProt P17987) | -0.0323 |
| TDRD7_Q8NHU6_1029_CNQWSEEASMVFR (UniProt Q8NHU6) | -0.175 |
| THOC2_Q8NI27_986_CIFSAIDAVYCAR (UniProt Q8NI27) | -0.0289 |
| TCP1_P17987_397_SLHDALCVVKR (UniProt P17987) | -0.118 |
| TDRD7_Q8NHU6_103_QVNCQMR (UniProt Q8NHU6) | -0.119 |
| TLN1_Q9Y490_2161_ALEATTEHIRQELAVFCSPEPPAK (UniProt Q9Y490) | -0.0388 |
| THOP1_P52888_18_MKPPAACAGDMADAASPCSVVNDLR (UniProt P52888) | -0.386 |
| THOC6_Q86W42_148_ENSLILAGGDCQLHTMDLETGTFTR (UniProt Q86W42) | 0.104 |
| TEX30_Q5JUR7_166_EPVLFVSGSADEMCEK (UniProt Q5JUR7) | -0.247 |

| Target | probe-labelled cysteine peptide fold change |
| --- | --- |
| TLE4_Q04727_32_FTISESCDR (UniProt Q04727) | -0.108 |
| THADA_Q6YHU6_1605_ENHPECFCK (UniProt Q6YHU6) | -0.00737 |
| THOP1_P52888_253_EENCAILK (UniProt P52888) | 0.642 |
| TDP1_Q9NUW8_48_YTCSEAQK (UniProt Q9NUW8) | -0.337 |
| THBS1_P07996_657_NPCTDGTHDCNK (UniProt P07996) | -0.52 |
| THUMPD3_Q9BV44_391_PSWGLPIDAVQWDICNLPLR (UniProt Q9BV44) | -0.265 |
| THUMPD3_Q9BV44_2_CDIEEATNQLLDVNLHENQK (UniProt Q9BV44) | -0.202 |
| THOP1_P52888_682_GLQVGGCEPEPQVC (UniProt P52888) | -0.241 |
| TGFBRAP1_Q8WUH2_32_VNIECVECCGR (UniProt Q8WUH2) | -0.197 |
| TEPSIN_Q96N21_493_LVGAGAAAGESCPDAPR (UniProt Q96N21) | -0.182 |
| TIMM29_Q9BSF4_130_YVNLGLCSLVYEAPFDAQASLYQAR (UniProt Q9BSF4) | 0.167 |
| TK1_P04183_66_YSSSFCTHDR (UniProt P04183) | -0.00427 |
| TIMELESS_Q9UNS1_606_IQDCLLAGQAPQALTLLR (UniProt Q9UNS1) | -0.552 |
| TIMELESS_Q9UNS1_96_LMVNLTQPALLCFGNLPK (UniProt Q9UNS1) | 0.247 |
| TKT_P29401_362+376_EHPDRFIECYIAEQNMVSIAVGCATR (UniProt P29401) | -0.0131 |
| THSD7A_Q9UPZ6_1459_SRPVIIQELENQHLCPEQMLETK (UniProt Q9UPZ6) | 0.0724 |
| TKT_P29401_362_EHPDRFIECYIAEQNMVSIAVGCATR (UniProt P29401) | 0.149 |
| TEP1_Q99973_2275_EADDTCIPR (UniProt Q99973) | -0.137 |
| TERF1_P54274_118_NSAEAIIHGLSSLTACQLR (UniProt P54274) | -0.173 |
| TDRD7_Q8NHU6_72_SGEITCYAMACTETAR (UniProt Q8NHU6) | 0.11 |

Two entries drawn at random from those above:

| Target | probe-labelled cysteine peptide fold change |
| --- | --- |
| TEPSIN_Q96N21_493_LVGAGAAAGESCPDAPR (UniProt Q96N21) | -0.182 |
| TERF1_P54274_118_NSAEAIIHGLSSLTACQLR (UniProt P54274) | -0.173 |
